The values that follow come from PubChem BioAssay AID330 (DTP/NCI, 2004).

The test system of this assay is P388 leukemia ip, CD2F1 mice, survival T/C. The assay is described as follows: NCI In Vivo Anticancer Drug Screen. Data for tumor model P388 Leukemia (intraperitoneal) in CD2F1 (CDF1) mice. The settings on record: T/C endpoint: median survival time, higher T/C = longer survival.
Where [1] appears, read: dose: 200.0 mg/kg/injection, schedule: Q01DX009 (ip), vehicle: saline with Tween-80.

The list is a part of this screen's results and no random one: it gathers tests that were run many times, whatever their T/C, doses with no T/C, and many T/C values between a quarter and a half above the control. Other doses and runs of a compound stand elsewhere. T/C is the treated group as % of the vehicle group. Some doses have a count of surviving animals in place of a T/C: the source holds a T/C of zero for them, seemingly a mark for toxic or unscored doses. Some doses without a T/C left all or most animals alive at the check, yet need not have been tolerated: survival well below the control is almost never listed, so the zero probably covers shortened survival too. Survivors were counted at the toxicity check, usually on the fifth day, unless a day is given; later deaths do not show. Schedules are NCI's codes, read here as Q, the interval in days (D) or hours (H), X, the number of doses. Marks such as (2×) count equal records among those shown. Some structures stand for samples that the source files as different forms (salt, stereo form or complex); doses refer to the form tested. Some entries were tested several times; the results are listed from low to high. Where survival is the endpoint, this PubChem deposit counts one and a half times the control or more as active, and values a quarter to a half above the control carry no call in these data; other NCI protocols may use other cut-offs. Some T/C values are followed by the survivors on the day toxicity was checked, most often the fifth; where none is given, no animal had died by that day.

Regarding `CC12CCCN(CCCl)C1CCC1C2CCC2(C)C1CCCN2CCCl` (stereo not drawn), the T/C (dose: 3.13 mg/kg/injection, schedule: Q01DX001 (ip), vehicle: saline with Tween-80) was 126 % of control [5 of 6 alive]. Also, the survivor count is 1 of 6 (dose: 3.13 mg/kg/injection, schedule: Q01DX001 (ip), vehicle: saline); 0 of 6 and 1 of 6 (dose: 6.25 mg/kg/injection, schedule: Q01DX001 (ip), vehicle: saline with Tween-80); 0 of 6 (dose: 6.25 mg/kg/injection, schedule: Q01DX001 (ip), vehicle: saline); 0 of 6 (2×) (dose: 25.0 mg/kg/injection, schedule: Q01DX001 (ip), vehicle: saline); 0 of 6 (2×) (dose: 50.0 mg/kg/injection, schedule: Q01DX001 (ip), vehicle: saline); 0 of 6 (2×) (dose: 100.0 mg/kg/injection, schedule: Q01DX001 (ip), vehicle: saline).
Turning to `CCCCCCCCCCCCCCCc1cc(O)c(CC=C(C)C)c(=O)o1` (tested in a mixture with another compound), the survivor count (dose: 660.0 mg/kg/injection, schedule: Q01DX005 (ip), vehicle: Klucel (hydroxypropylcellulose) (HPC)) is recorded as 2 of 6.
As for `C=C1C(=O)OC2/C=C(\C)C(O)/C=C\C(C)(O)CC(OC(=O)/C(C)=C/C)C12` (stereo not drawn), the survivor count (dose: 80.0 mg/kg/injection, schedule: Q01DX009 (ip), vehicle: saline) is listed as 5 of 6.
For `C/C=C1/C[N+]2(C)CCc3c([nH]c4ccccc34)C2CC1C(CO)C(=O)OC` (stereo not drawn), the survivor count (dose: 100.0 mg/kg/injection, schedule: Q01DX009 (ip), vehicle: saline with Tween-80) was 3 of 6.
For `COc1ccc(/C=N\N=C(/[O-])c2ccc(Cl)cc2)cc1.COc1ccc(/C=N\N=C(/[O-])c2ccc(Cl)cc2)cc1.[Ni+2].[OH3+].[OH3+]`, the survivor count runs as follows: (dose: 200.0 mg/kg/injection, schedule: Q04DX002 (ip), vehicle: saline with Tween-80) 3 of 6; (dose: 400.0 mg/kg/injection, schedule: Q04DX002 (ip), vehicle: saline with Tween-80) 6 of 6.
Take `CCOC(=O)C(C(=O)OCC)[N+](=O)[O-]`: the survivor count under setting [1] is given as 3 of 6 and the survivor count (dose: 400.0 mg/kg/injection, schedule: Q01DX009 (ip), vehicle: saline with Tween-80) is listed as 1 of 6.
Turning to `CC(=O)O/N=C/c1cc[n+](C)cc1`, the survivor count was 3 of 6 (dose: 200.0 mg/kg/injection, schedule: Q04DX003 (ip), vehicle: saline) and 0 of 6 (dose: 400.0 mg/kg/injection, schedule: Q04DX003 (ip), vehicle: saline).
On to `O=Cc1nnc(-c2ccccc2)o1`, for which the survivor count (dose: 50.0 mg/kg/injection, schedule: Q01DX009 (ip), vehicle: DMSO) was 6 of 6; the survivor count (dose: 100.0 mg/kg/injection, schedule: Q01DX009 (ip), vehicle: DMSO) is 5 of 6; the survivor count (dose: 200.0 mg/kg/injection, schedule: Q01DX009 (ip), vehicle: DMSO) is reported as 1 of 6.
As to `CCCCCCCCCCCCCCCCSc1ccncc1NN=O`, the survivor count under setting [1] was 4 of 6.
For the compound `CC(=O)[C@]1(O)Cc2c(O)c3c(c(O)c2[C@@H](OC2CC(N)C(O)C(C)O2)C1)C(=O)c1c(O)cccc1C3=O` (stereo partly drawn), the T/C (dose: 0.05 mg/kg/injection, schedule: Q04DX003 (ip), vehicle: saline) is 127 % of control; the T/C (dose: 0.08 mg/kg/injection, schedule: Q04DX003 (ip), vehicle: saline) was 140 % of control; the T/C (dose: 0.08 mg/kg/injection, schedule: Q04DX003 (ip), vehicle: water) is 134 % of control; the T/C (dose: 0.13 mg/kg/injection, schedule: Q04DX003 (ip), vehicle: saline, evaluated on day 45) was 128 % of control; the T/C (dose: 0.13 mg/kg/injection, schedule: Q04DX003 (ip), vehicle: saline, evaluated on day 60) was 142 % of control; the T/C (dose: 0.13 mg/kg/injection, schedule: Q04DX003 (ip), vehicle: water) was 143 % of control. In addition, the T/C (dose: 0.14 mg/kg/injection, schedule: Q04DX003 (ip), vehicle: saline) was 136 % of control; the T/C (dose: 0.16 mg/kg/injection, schedule: Q01DX001 (ip), vehicle: saline) is 142 % of control; the T/C (dose: 0.16 mg/kg/injection, schedule: Q04DX003 (ip), vehicle: water) is 135 % of control; the T/C (dose: 0.2 mg/kg/injection, schedule: Q04DX003 (ip), vehicle: saline, evaluated on day 30) was 137 % of control; the T/C (dose: 0.2 mg/kg/injection, schedule: Q04DX003 (ip), vehicle: saline, evaluated on day 60) was 133 % of control; the T/C (dose: 0.21 mg/kg/injection, schedule: Q04DX003 (ip), vehicle: water) is 149 % of control. Moreover, the T/C was 144 % of control (dose: 0.22 mg/kg/injection, schedule: Q04DX003 (ip), vehicle: saline, evaluated on day 45); 149 % of control (dose: 0.22 mg/kg/injection, schedule: Q04DX003 (ip), vehicle: saline, evaluated on day 60); 131 % of control (dose: 0.23 mg/kg/injection, schedule: Q01DX009 (ip), vehicle: saline); 136 % of control (dose: 0.23 mg/kg/injection, schedule: Q04DX003 (ip), vehicle: saline); 144 % of control (dose: 0.26 mg/kg/injection, schedule: Q01DX001 (ip), vehicle: saline, evaluated on day 45); 148 % of control (dose: 0.26 mg/kg/injection, schedule: Q01DX001 (ip), vehicle: saline, evaluated on day 60). Also, the T/C (dose: 0.4 mg/kg/injection, schedule: Q04DX003 (ip), vehicle: saline) is 127 % of control; the T/C (dose: 0.6 mg/kg/injection, schedule: Q04DX003 (ip), vehicle: saline) was 148 % of control; the T/C (dose: 0.8 mg/kg/injection, schedule: Q04DX003 (ip), vehicle: saline) is 142 % of control; the T/C (dose: 1.0 mg/kg/injection, schedule: Q04DX003 (ip), vehicle: water, evaluated on day 30) is 125 % of control; the T/C (dose: 1.0 mg/kg/injection, schedule: Q04DX003 (ip), vehicle: water, evaluated on day 35) is 128 % of control; the T/C (dose: 1.6 mg/kg/injection, schedule: Q04DX003 (ip), vehicle: saline) was 134 % of control. The T/C runs as follows: (dose: 2.0 mg/kg/injection, schedule: Q04DX003 (ip), vehicle: water) 135 % of control; (dose: 4.63 mg/kg/injection, schedule: Q04DX003 (oral), vehicle: saline) 137 % of control; (dose: 7.0 micrograms/kg/injection, schedule: Q04DX003 (ip), vehicle: saline) 127 % of control; (dose: 12.5 micrograms/kg/injection, schedule: Q04DX003 (ip), vehicle: saline) 131 % of control; (dose: 100.0 micrograms/kg/injection, schedule: Q04DX003 (ip), vehicle: saline) 125 % of control; (dose: 250.0 micrograms/kg/injection, schedule: Q04DX003 (ip), vehicle: saline) 130 % of control. Besides, the T/C runs as follows: (dose: 400.0 micrograms/kg/injection, schedule: Q04DX003 (ip), vehicle: saline) 130 % of control; (dose: 1600.0 micrograms/kg/injection, schedule: Q04DX003 (ip), vehicle: saline) 144 % of control [5 of 6 alive on day 9]. Further, the survivor count reads like this: (dose: 0.65 mg/kg/injection, schedule: Q01DX009 (ip), vehicle: saline) 10 of 10; (dose: 1.2 mg/kg/injection, schedule: Q01DX001 (ip), vehicle: saline) 10 of 10; (dose: 1.8 mg/kg/injection, schedule: Q01DX001 (ip), vehicle: saline) 4 of 10; (dose: 2.0 mg/kg/injection, schedule: Q01DX001 (ip), vehicle: saline) 10 of 10; (dose: 2.0 mg/kg/injection, schedule: Q04DX003 (ip), vehicle: saline) 8 of 8; (dose: 2.5 mg/kg/injection, schedule: Q04DX003 (ip), vehicle: saline) 8 of 8. Moreover, the survivor count (dose: 3.0 mg/kg/injection, schedule: Q01DX001 (ip), vehicle: saline) was 0 of 10; the survivor count (dose: 4.0 mg/kg/injection, schedule: Q04DX003 (ip), vehicle: water) is 8 of 8 on day 9 (2×); the survivor count (dose: 5.56 mg/kg/injection, schedule: Q01DX001 (oral), vehicle: saline) was 5 of 10; the survivor count (dose: 9.26 mg/kg/injection, schedule: Q01DX001 (oral), vehicle: saline) is listed as 3 of 10; the survivor count (dose: 15.4 mg/kg/injection, schedule: Q01DX001 (oral), vehicle: saline) is 5 of 10.
